Experimental findings from patent publication US5633345A (priority 1992, dated 1997) are described below.

HELM strings list residues between dots; [ac] is acetyl, [am] amide, other brackets name non-standard units.

The nature of one series: general procedure: solution-phase peptide synthesis; PyBroP/DIEA; WSCD.HCl/HOObt. The following applies: coupling step, HCl salt (deprotected intermediates).
Take “Boc-L-Glu(OBzl)-L-MeVal-L-Leu-L-βHOMeVal-D-Hmp-L-MeVal-L-Phe-L-MePhe- L-Pro-OPac”: the step yield is 91.9%. Same read-out and setting: under “Boc-L-Glu(OcHex)-L-βHOMeVal-D-Hmp-L-MeVal-L-Phe-L-MePhe-L-Pro-OPac” stands 72.2%. Take “Boc-L-Leu-L-MeThr(Bzl)-D-Hmp-L-MeVal-L-Phe-L-MePhe-L-Pro-OPac”: the step yield is listed as 52.8%. “Boc-L-Leu-L-βHOMeVal-D-Hmp-L-MeVal-L-Phe-L-MePhe-L-Pro-OPac”: the step yield turned out to be 78.7%. The same measure, in the same setting: under Boc-L-MeVal-L-Phe-L-MePhe-L-Pro-OPac stands 86.1%; under “Boc-L-aIle-L-Hmb-L-Leu-L-βHOMeVal-D-Hmp-L-MeVal-L-Phe-L-MePhe-L-Pro-OPac”, 64.5%; under “Boc-L-aIle-L-MeVal-L-Glu(OcHex)-L-βHOMeVal-D-Hmp-L-MeVal-L-Phe-L-MePhe-L-Pro”, 76.1%. Same read-out and setting: under “Boc-L-aIle-L-MeVal-L-Leu-L-MeThr(Bzl)-D-Hmp-L-MeVal-L-Phe-L-MePhe-L-Pro-OPac” stands 29.9%; under “Boc-L-aIle-L-MeVal-L-Leu-L-βHOMeVal-D-Hmp-L-MeVal-L-Phe-L-MePhe-L-Pro-OPac”, 59.6%; under “Boc-L-aIle-L-ROMeNva-L-Leu-L-βHOMeVal-D-Hmp-L-MeVal-L-Phe-L-MePhe-L-Pro-OPac (R: Bzl)”, 50.0%.

Still in this series, the particulars now being: cyclisation step, HCl salt (deprotected intermediates).
With “Cyclo(L-aIle-L-MeVal-L-GluOR-L-βHOMeVal-D-Hmp-L-MeVal-L-Phe-L-MePhe-L-Pro) (R: cHex)”, the cyclisation yield stood at 28.6%. Still for that read-out and setting: under “Cyclo(L-aIle-L-MeVal-L-Leu-L-MeThr(Bzl)-D-Hmp-L-MeVal-L-Phe-L-MePhe-L-Pro)” stands 15.3%; under “Cyclo(L-aIle-L-ROMeNva-L-Leu-L-βHOMeVal-D-Hmp-L-MeVal-L-Phe-L-MePhe-L-Pro) (R: Bzl)”, 34%; under “PEPTIDE1{[GluOBzl].[MeVal].L.[bHOMeVal].[D-Hmp].[MeVal].F.[MePhe].P}$PEPTIDE1,PEPTIDE1,1:R1-9:R2$$$V2.0”, 5.3%. The same measure, in the same setting: under “PEPTIDE1{[aIle].[L-Hmb].L.[bHOMeVal].[D-Hmp].[MeVal].F.[MePhe].P}$PEPTIDE1,PEPTIDE1,1:R1-9:R2$$$V2.0” stands 27.2%.

“PEPTIDE1{[aIle].[MeVal].L.[bHOMeVal].[D-Hmp].[MeVal].F.[MePhe].P}$PEPTIDE1,PEPTIDE1,1:R1-9:R2$$$V2.0”: the cyclisation yield is 45.2% and the outcome is reported as “the target aureobasidin A could not be synthesized”.

The same series, now with this note: late stage modification step, HCl salt.
“HCl.cndot.H-L-Glu(OcHex)-L-βHOMeVal-D-Hmp-L-MeVal-L-Phe-L-MePhe-L-Pro-OPac”: the step yield is on record as 87.2%.

Consider “HCl.cndot.H-L-Leu-L-βHOMeVal-D-Hmp-L-MeVal-L-Phe-L-MePhe-L-Pro-OPac”, for which the step yield is on record as 93.0%.

“HCl.cndot.H-L-MeVal-L-Phe-L-MePhe-L-Pro-OPac”: the step yield was determined as 93.0%. In the case of “HCl.cndot.H-L-aIle-L-MeVal-L-Glu(OcHex)-L-βHOMeVal-D-Hmp-L-MeVal-L-Phe-L-MePhe-L-Pro-OH”, the step yield came out at 95.5%.

In the case of “HCl.cndot.H-L-aIle-L-MeVal-L-Leu-L-βHOMeVal-D-Hmp-L-MeVal-L-Phe-L-MePhe-L-Pro-OH”, the step yield is given as 91.1%.

Staying with this series, now noted: late stage modification step, HCl salt (deprotected intermediates).
For the substance “Boc-L-Glu(OBzl)-L-MeVal-L-Leu-L-βHOMeVal-D-Hmp-L-MeVal-L-Phe-L-MePhe- L-Pro-OH”, the step yield is listed as 74%. The same measure, in the same setting: under “Boc-L-aIle-L-Hmb-L-Leu-L-βHOMeVal-D-Hmp-L-MeVal-L-Phe-L-MePhe-L-Pro-OH” stands 100%; under “Boc-L-aIle-L-MeVal-L-Glu(OcHex)-L-βHOMeVal-D-Hmp-L-MeVal-L-Phe-L-MePhe-L-Pro-OH”, 100%; under “Boc-L-aIle-L-MeVal-L-Leu-L-MeThr(Bzl)-D-Hmp-L-MeVal-L-Phe-L-MePhe-L-Pro-OH”, 100%. With “Boc-L-aIle-L-MeVal-L-Leu-L-βHOMeVal-D-Hmp-L-MeVal-L-Phe-L-MePhe-L-Pro-OH”, the step yield is 100%. On the same count and under the same terms, under “Boc-L-aIle-L-ROMeNva-L-Leu-L-βHOMeVal-D-Hmp-L-MeVal-L-Phe-L-MePhe-L-Pro-OH (R: Bzl)” stands 93.8%; under “Cyclo(L-Glu-L-MeVal-L-Leu-L-βHOMeVal-D-Hmp-L-MeVal-L-Phe-L-MePhe-L-Pro)”, 89.4%. Same read-out and setting: the value for “Cyclo(L-GluOR-L-MeVal-L-Leu-L-βHOMeVal-D-Hmp-L-MeVal-L-Phe-L-MePhe-L- Pro) (R: n-butyl)” was 95.2%. Regarding “Cyclo(L-aIle-L-MeVal-L-Glu-L-βHOMeVal-D-Hmp-L-MeVal-L-Phe-L-MePhe-L-Pro)”, the step yield stood at 90.2%. On the same count and under the same terms, the value for “HCl.cndot.H-L-Glu(OBzl)-L-MeVal-L-Leu-L-βHOMeVal-D-Hmp-L-MeVal-L-Phe- L-MePhe-L-Pro-OH” was 97.8%; that for “HCl.cndot.H-L-Leu-L-MeThr(Bzl)-D-Hmp-L-MeVal-L-Phe-L-MePhe-L-Pro-OPac” was 86.0%; that for “HCl.cndot.H-L-aIle-L-Hmb-L-Leu-L-βHOMeVal-D-Hmp-L-MeVal-L-Phe-L-MePhe-L-Pro-OH” was 85.9%. As for “HCl.cndot.H-L-aIle-L-MeVal-L-Leu-L-MeThr(Bzl)-D-Hmp-L-MeVal-L-Phe-L-MePhe- L-Pro-OH”, the step yield was found to be 94.2%. Take “HCl.cndot.H-L-aIle-L-ROMeNva-L-Leu-L-βHOMeVal-D-Hmp-L-MeVal-L-Phe-L-MePhe-L-pro-OH (R: Bzl)”: the step yield is 93.0%. Still for that read-out and setting: under “PEPTIDE1{[HONva].[MeVal].L.[bHOMeVal].[D-Hmp].[MeVal].F.[MePhe].P}$PEPTIDE1,PEPTIDE1,1:R1-9:R2$$$V2.0” stands 71%; under “PEPTIDE1{[aIle].[HOMeNva].L.[bHOMeVal].[D-Hmp].[MeVal].F.[MePhe].P}$PEPTIDE1,PEPTIDE1,1:R1-9:R2$$$V2.0”, 87.3%.

As for “PEPTIDE1{[aIle].[MeVal].L.[MeThr].[D-Hmp].[MeVal].F.[MePhe].P}$PEPTIDE1,PEPTIDE1,1:R1-9:R2$$$V2.0”, the step yield is reported as 66.3%. In the case of “PEPTIDE1{[aIle].[MeVal].[HONva].[bHOMeVal].[D-Hmp].[MeVal].F.[MePhe].P}$PEPTIDE1,PEPTIDE1,1:R1-9:R2$$$V2.0”, the step yield was found to be 49.5%. For the substance “cyclo(L-GluOR-L-MeVal-L-Leu-L-βHOMeVal-D-Hmp-L-MeVal-L-Phe-L-MePhe-L- Pro) (R: cis-3-hexenyl)”, the step yield is 84.5%. The same measure, in the same setting: under “cyclo(L-GluOR-L-MeVal-L-Leu-L-βHOMeVal-D-Hmp-L-MeVal-L-Phe-L-MePhe-L- Pro) (R: n-decyl)” stands 98.7%; under “cyclo(L-GluOR-L-MeVal-L-Leu-L-βHOMeVal-D-Hmp-L-MeVal-L-Phe-L-MePhe-L- Pro) (R: n-hexyl)”, 94.4%; under “cyclo(L-GluOR-L-MeVal-L-Leu-L-βHOMeVal-D-Hmp-L-MeVal-L-Phe-L-MePhe-L- Pro) (R: n-octyl)”, 53.6%. The same measure, in the same setting: the value for “cyclo(L-GluOR-L-MeVal-L-Leu-L-βHOMeVal-D-Hmp-L-MeVal-L-Phe-L-MePhe-L- Pro) (R: trans-3-hexenyl)” was 80.1%; that for “cyclo(L-RONva-L-MeVal-L-Leu-L-βHOMeVal-D-Hmp-L-MeVal-L-Phe-L-MePhe-L- Pro) (R: n-hexanoyl)” was 100%.
